# PubChem BioAssay AID504467 (National Center for Advancing Translational Sciences (NCATS), 2011)
# The campaign covered roughly 330,000 compounds. About 7,700 (2.3%) were called active. Inconclusive means that the source gave no clear call. Such entries were picked first, then a sample of the others. Calls follow the shape of the dose curve; as a rule, active = well fitted inhibition curve with a large enough effect; inconclusive = small, poorly fitted or top-dose-only effect, or effect the other way; inactive = flat fitted curve, though single readings scatter. Where the call is inconclusive, the potency comes from a doubtful curve fit.
# Assay: qHTS screen for small molecules that inhibit ELG1-dependent DNA repair in human embryonic kidney (HEK293T) cells expressing luciferase-tagged ELG1; also: nearly all actives have a fitted effect of over 55% in size
# Settings: HEK293T ELG1-luciferase reporter, luminescence, 16 h, DNA damage induced by 5-fluorouridine; activity change, negative = inhibition: at 46.1 µM (top of the series)
# Summary of the method: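 Step one: seed 2,000 cells per well. Step two: pin-transfer compound or DMSO alongside 5-fluorouridine. Step three: incubate 16 hr, 37 °C, 5% CO2. Step four: add ONE-Glo, wait 30 min, read luminescence.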
# % is scaled to controls: 0 for no effect and ±100 for the full control effect; potency is read from the fitted curve at half-maximal effect.
Structure (SMILES),"activity change, negative = inhibition",Potency
CCOc1ccccc1N1CC(C(=O)Nc2cc(Cl)ccc2C)CC1=O (stereo not drawn),inactive: -19%,–
Cc1ccc(NC2=C/C(=N\S(=O)(=O)c3cccs3)c3ccccc3C2=O)c(C)c1,–,"inconclusive: 4.61 µM [inhibitor, full curve, poor fit]"
O=C(Nc1ccc2c(c1)OCCO2)NC12CC3CC(CC(C3)C1)C2,–,"inconclusive: 7.31 µM [activator, partial curve]"
Cc1cccc(C(=O)OCC(=O)N2CCCCCC2)c1,–,"inconclusive: 17.8 µM [activator, partial curve]"
c1ccc(SCc2nc3ccccc3[nH]2)nc1,–,"inconclusive: 13 µM [activator, partial curve]"
CC(C)c1ccc(/C=C2\SC(=S)N(CCC(=O)NCCCn3ccnc3)C2=O)cc1,–,"inconclusive: 18.3 µM [activator, single point]"
Fc1ccc(CNc2nc3ccccc3n3nnnc23)cc1,–,"inconclusive: 29.1 µM [activator, single point]"
O=C(COc1ccc(Cl)cc1Cl)NCC1(N2CCOCC2)CCCCC1,–,"inconclusive: 18.3 µM [inhibitor, partial curve]"
CCCOc1ccc(C2=NNC(c3cccs3)=Nc3ccc(OC)cc32)cc1,–,active: 16.4 µM
O=C(C(Cc1ccccc1)n1cccc1)N1CCN(c2cccc(Cl)c2)CC1 (stereo not drawn),–,"inconclusive: 23.1 µM [inhibitor, partial curve, poor fit]"
CC(=O)c1ccc(NC(=O)C2(c3ccccc3)CCOCC2)cc1,–,"inconclusive: 10.3 µM [activator, partial curve]"
O=c1c2c3nc4ccccc4nc3n(-c3ccc4c(c3)OCCO4)c2ncn1C1CCCC1,inactive: 27.4%,–
CC(=O)n1cc(/C=N/NC(=O)c2ccc([N+](=O)[O-])cc2)c2ccccc21,inactive: -1.92%,–
O=C(Nc1ccccc1)NC1CC2CCC(C1)N2Cc1nnnn1Cc1ccc2c(c1)OCO2 (stereo not drawn),–,"inconclusive: 23.1 µM [inhibitor, single point]"
CCOc1ccc(CN(C)C(=O)CNC(=O)c2ccccc2)cc1,inactive: 1.42%,–
CSc1ccccc1OCc1cc(C(=O)NC(C)Cc2cccc(C)n2)no1 (stereo not drawn),–,"inconclusive: 29.1 µM [inhibitor, single point]"
Cc1ccc(Cc2nc(-c3cccc(C)c3)no2)cc1,–,"inconclusive: 11.6 µM [activator, partial curve]"
CCOC(=O)Nc1cccc(OCC(=O)Nc2ccccc2OCC)c1,–,"inconclusive: 29.1 µM [inhibitor, single point]"
CC(C)/C=C1\CCc2c([nH]c3ccccc23)C1=O,inactive: 17.1%,–
CCOc1cc(NS(=O)(=O)CC)c(OCC)cc1NC(=O)c1ccco1,–,active: 16.4 µM
COc1ccc(N(C)C(=O)c2cn(CC(C)C)c(=O)c3cc(OC)c(OC)cc23)cc1,–,"inconclusive: 18.3 µM [inhibitor, single point]"
CCC(C)Nc1nc(N)c([N+](=O)[O-])c(Nc2cc(OC)ccc2OC)n1 (stereo not drawn),–,active: 23.1 µM
COc1ccc(N2C(=O)CC(Sc3nc(C)c4c(n3)CCCC4)C2=O)cc1 (stereo not drawn),–,"inconclusive: 4.61 µM [inhibitor, partial curve, poor fit]"

Structure (SMILES),"activity change, negative = inhibition",Potency
COc1ccc(C2Nc3ccccc3C(=O)N2c2ccc(C)cc2)cc1COc1ccccn1 (stereo not drawn),–,"inconclusive: 9.2 µM [activator, partial curve]"
Cc1cc(N2CCN(C)CC2)nc2ccc(NC(=S)NCc3cccs3)cc12,inactive: 4.11%,–
O=C(NC(=S)Nc1ccccn1)c1ccc([N+](=O)[O-])cc1,–,"inconclusive: 5.8 µM [activator, partial curve]"
CCC12CCCN3CCC4(C(=C(C(=O)OC)C1)Nc1ccccc14)C32 (stereo not drawn),–,"inconclusive: 10 µM [activator, partial curve, poor fit]"
N=C1C(c2nc3ccccc3s2)=C(O)CN1C1CCCCC1,–,"inconclusive: 0.651 µM [inhibitor, single point]"
COC(=O)Cc1c(C)c2ccc(OCC(=O)NCc3ccc4c(c3)OCO4)cc2oc1=O,–,"inconclusive: 18.4 µM [inhibitor, single point]"
CCN(CC)S(=O)(=O)c1ccc(Cl)c(NC(=S)NC(=O)C2CCCC2)c1,–,"inconclusive: 9.2 µM [inhibitor, partial curve]"
O=C(Nc1nnc(-c2ccncc2)o1)c1ccccc1,inactive: -3.67%,–
O=C(c1ccccc1)c1ccc(N2CCCC2)cc1,–,"inconclusive: 4.61 µM [activator, full curve]"
CCOc1ccc(C2C=C(c3ccc(C)cc3)Nc3ncnn32)cc1 (stereo not drawn),–,"inconclusive: 32.6 µM [inhibitor, partial curve, poor fit]"
O=C(CCCOc1ccccc1)N1CCN(S(=O)(=O)c2ccc(Cl)cc2)CC1,–,"inconclusive: 3.55 µM [inhibitor, single point]"
COc1cccc(NC(=O)CN(C)C(=O)CSc2nc3ccccc3s2)c1,–,"inconclusive: 20.6 µM [inhibitor, single point]"
Cc1ccc(CNC(=O)COc2cc(O)c3c(c2)OC(C)(C)CC3=O)cc1,–,"inconclusive: 0.0517 µM [inhibitor, partial curve, poor fit]"
COc1ccc(NC(=O)Nc2cc(NC(=O)Nc3ccc(OC)cc3)c(C)nc2C)cc1,inactive: 6.55%,–
CCc1nc2ccc(C)cc2c(C(=O)Oc2cccc3cccnc23)c1C,–,"inconclusive: 4.61 µM [inhibitor, full curve]"
CN1CCN(C(=O)C2(NC(=O)Nc3cccc(F)c3)CCCCC2)CC1,–,"inconclusive: 29.1 µM [activator, partial curve, poor fit]"
c1ccc(Nc2nc(-c3cccnc3)cs2)nc1,–,"inconclusive: 1.46 µM [activator, partial curve]"
COc1ccccc1NC(=O)Cn1c(O)c(N=NC(=O)c2ccccc2O)c2ccccc21,–,"inconclusive: 29.1 µM [activator, single point]"
CCCCCC(=O)NNC(=S)NC(=O)c1ccccc1[N+](=O)[O-],inactive: -10.6%,–
COC(=O)c1ccc(-c2noc(CN3C[C@H]4CC[C@H]3C4)n2)cc1,–,"inconclusive: 13 µM [activator, partial curve]"
COc1ccc(N2CCN(C(=O)c3cc(-c4cccs4)nc4ccccc34)CC2)cc1,–,"inconclusive: 23.1 µM [inhibitor, single point]"
CC(Sc1nc(N)cc(=O)[nH]1)C(=O)Nc1sc2c(c1C#N)CCCC2 (stereo not drawn),–,active: 8.2 µM
O=c1[nH]cc(I)cc1I,inactive: -4.19%,–

# For convenience, part of the list above.
Structure (SMILES),"activity change, negative = inhibition",Potency
O=C(COc1ccc(Cl)cc1Cl)NCC1(N2CCOCC2)CCCCC1,–,"inconclusive: 18.3 µM [inhibitor, partial curve]"
CCCOc1ccc(C2=NNC(c3cccs3)=Nc3ccc(OC)cc32)cc1,–,active: 16.4 µM
O=C(C(Cc1ccccc1)n1cccc1)N1CCN(c2cccc(Cl)c2)CC1 (stereo not drawn),–,"inconclusive: 23.1 µM [inhibitor, partial curve, poor fit]"
CC(=O)c1ccc(NC(=O)C2(c3ccccc3)CCOCC2)cc1,–,"inconclusive: 10.3 µM [activator, partial curve]"
O=c1c2c3nc4ccccc4nc3n(-c3ccc4c(c3)OCCO4)c2ncn1C1CCCC1,inactive: 27.4%,–
CC(=O)n1cc(/C=N/NC(=O)c2ccc([N+](=O)[O-])cc2)c2ccccc21,inactive: -1.92%,–
O=C(Nc1ccccc1)NC1CC2CCC(C1)N2Cc1nnnn1Cc1ccc2c(c1)OCO2 (stereo not drawn),–,"inconclusive: 23.1 µM [inhibitor, single point]"
CCOc1ccc(CN(C)C(=O)CNC(=O)c2ccccc2)cc1,inactive: 1.42%,–
CSc1ccccc1OCc1cc(C(=O)NC(C)Cc2cccc(C)n2)no1 (stereo not drawn),–,"inconclusive: 29.1 µM [inhibitor, single point]"
Cc1ccc(Cc2nc(-c3cccc(C)c3)no2)cc1,–,"inconclusive: 11.6 µM [activator, partial curve]"
CCOC(=O)Nc1cccc(OCC(=O)Nc2ccccc2OCC)c1,–,"inconclusive: 29.1 µM [inhibitor, single point]"
CC(C)/C=C1\CCc2c([nH]c3ccccc23)C1=O,inactive: 17.1%,–

# Next records follow.

Structure (SMILES),"activity change, negative = inhibition",Potency
Cc1ccc(S(=O)(=O)N2CC(O)C[C@H]2C(=O)OCC(=O)Nc2ccc(N3CCCCC3)cc2)cc1C (stereo partly drawn),–,"inconclusive: 11.6 µM [activator, partial curve]"
COc1ccc2oc(C(=O)NCCC(C)C)c(C)c2c1,–,"inconclusive: 9.2 µM [activator, partial curve]"
Cc1cccc(NS(=O)(=O)c2cc([N+](=O)[O-])ccc2C)n1,inactive: 9.83%,–
COc1ccc(C2Nc3ccccc3C(=O)N2Cc2ccco2)cc1COc1ccc(F)cc1 (stereo not drawn),–,"inconclusive: 23.1 µM [inhibitor, partial curve]"
Cn1c2ccccc2c(=O)c2ccc(-c3ccc4c(c3)OCO4)cc21,–,"inconclusive: 2.31 µM [activator, full curve]"
COc1ccc(NC(=O)c2cc(-c3ccncc3)nc3ccc(Br)cc23)cc1OC,–,"inconclusive: 3.66 µM [inhibitor, partial curve, poor fit]"
CC1CCC(NC(=O)c2ccc(-n3cncn3)c([N+](=O)[O-])c2)CC1 (stereo not drawn),–,"inconclusive: 20.6 µM [activator, partial curve]"
CCN(CC)S(=O)(=O)c1ccc(C)c(NC(=S)N2CCN(C/C=C/c3ccccc3)CC2)c1,–,active: 11.6 µM
CC(=O)C1=C(c2ccccc2)NC(=O)NC1c1ccccc1OCC(=O)NCc1ccccc1 (stereo not drawn),–,"inconclusive: 20.6 µM [inhibitor, partial curve, poor fit]"
Cc1noc(C(=O)Nc2cccnc2Cl)c1Cl,inactive: 11.4%,–
CCCCC1=CC2=CC(=O)C(C)(OC(=O)CC)C(=O)C2=CN1C(CO)CO (stereo not drawn),–,"inconclusive: 18.3 µM [activator, partial curve, poor fit]"
N=c1c2c(n(Cc3ccccc3)c3c1CCC3)CCC2,–,active: 2.91 µM
COc1cc2nc(C3CC3)n(NC(=O)c3ccc(Cl)cc3)c(=O)c2cc1OC,–,"inconclusive: 22.4 µM [inhibitor, single point]"
CC1CCCCN1C(=O)CNCC1CCCO1 (stereo not drawn),inactive: -14.2%,–
CCc1ccc(NC(=O)c2noc(C(C)C)c2[N+](=O)[O-])cc1,–,"inconclusive: 20.6 µM [activator, single point]"
Cc1cccc2c1c1ccc3c(c1n2C)C(=O)C=CC3=O,inactive: -25%,–
CCN(CC)C(=O)Oc1nnc(SC(C)C)n1-c1ccc(Cl)cc1,–,"inconclusive: 0.0052 µM [inhibitor, full curve, poor fit]"
O=C(Oc1cccc2cccnc12)c1cccc(-n2cnnn2)c1,inconclusive: 45.9% [activator],–
Cn1c(=O)n(C)c2cc(/C=N/NC(=O)c3ccc(Cl)cc3)ccc21,–,"inconclusive: 13 µM [activator, partial curve, poor fit]"
O=C(/C=C/c1cccc(OCc2ccccc2)c1)c1cccnc1,–,"inconclusive: 29.1 µM [inhibitor, single point]"
CCN1C(=NCCCOC(C)C)N[C@@H](CCc2ccccc2)[C@H](C(=O)NCCCOC(C)C)[C@H]1C,–,"inconclusive: 29.1 µM [inhibitor, single point]"
COC(=O)C1=C(C)N(Cc2ccc(OC)cc2)C(=O)C1,inactive: -19.5%,–
